# Experimental data taken from the supplement of paper PMC10032668.
# Sequences of proteins named here, by UniProt entry; tags and fusion partners are left off.
# CFDP1, Q9UEE9, UniProt Q9UEE9, whole entry: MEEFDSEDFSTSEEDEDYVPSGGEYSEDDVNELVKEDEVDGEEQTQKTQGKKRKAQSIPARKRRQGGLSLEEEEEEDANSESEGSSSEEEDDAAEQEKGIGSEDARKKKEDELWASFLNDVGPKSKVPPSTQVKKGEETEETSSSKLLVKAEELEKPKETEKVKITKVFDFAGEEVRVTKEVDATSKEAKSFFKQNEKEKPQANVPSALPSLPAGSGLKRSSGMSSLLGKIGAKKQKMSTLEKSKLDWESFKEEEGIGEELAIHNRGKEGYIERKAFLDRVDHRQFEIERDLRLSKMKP
# ANAPC5, Q9UJX4, UniProt Q9UJX4, whole entry: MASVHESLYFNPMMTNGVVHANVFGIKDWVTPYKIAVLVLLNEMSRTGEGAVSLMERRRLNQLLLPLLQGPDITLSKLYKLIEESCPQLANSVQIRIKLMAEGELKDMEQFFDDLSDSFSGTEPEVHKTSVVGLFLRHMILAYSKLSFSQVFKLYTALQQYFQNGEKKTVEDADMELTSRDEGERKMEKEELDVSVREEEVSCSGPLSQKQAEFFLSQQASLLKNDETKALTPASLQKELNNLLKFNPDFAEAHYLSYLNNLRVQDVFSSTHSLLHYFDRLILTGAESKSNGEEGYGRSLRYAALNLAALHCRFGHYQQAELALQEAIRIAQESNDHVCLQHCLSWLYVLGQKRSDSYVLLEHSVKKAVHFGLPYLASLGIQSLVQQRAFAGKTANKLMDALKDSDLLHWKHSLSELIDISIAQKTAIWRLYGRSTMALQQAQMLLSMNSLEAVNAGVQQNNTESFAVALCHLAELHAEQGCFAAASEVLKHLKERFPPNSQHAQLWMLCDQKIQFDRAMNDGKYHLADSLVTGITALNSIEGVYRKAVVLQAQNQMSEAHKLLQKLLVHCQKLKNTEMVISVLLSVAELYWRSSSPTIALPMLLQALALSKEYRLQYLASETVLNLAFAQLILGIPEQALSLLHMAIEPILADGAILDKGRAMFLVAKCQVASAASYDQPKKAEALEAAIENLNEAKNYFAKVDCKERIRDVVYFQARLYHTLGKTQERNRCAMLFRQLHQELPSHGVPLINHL
# The other results are listed elsewhere or left out. Only hits are listed; about a third recur on repeated control peptides.
# B1: SEC14L1 (peptide)
# chain: MSAPRHPVSQARPF
# B2: MAGI2-AS3 (peptide)
# chain: MEQK
# Experiments:
# Assay in all cases: PRISMA enrichment of interactor (LFQ) in peptide spot vs all other peptide spots (log2 fold change); higher = stronger / more specific binding of the interactor to the peptide
# [1] = biological target: ANGEL1, Q9UNK9
# Experimental: (§1)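 PRISMA: 221 full-length sORF-encoded peptides (3-15 aa), plus SOS1/GLUT1 control peptides, were spot-synthesized on cellulose membranes in triplicate. Membranes were incubated with HEK293T lysate, and bound proteins were identified by LC-MS/MS with LFQ. Enrichment is the log2 fold change versus all other peptide spots; only significant interactors are listed (cutoff c=6, x0=2.8).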
# [2] = biological target: CFDP1, Q9UEE9
# Experimental: as §1
# [3] = biological target: HNRNPF, P52597
# Experimental: as §1
# [4] = biological target: MRPL51, Q4U2R6
# Experimental: as §1
# [5] = biological target: PALLD, Q8WX93
# Experimental: as §1
# [6] = biological target: RBM10
# Experimental: as §1
# [7] = biological target: RCN2, Q14257
# Experimental: as §1
# [8] = biological target: RRS1, Q15050
# Experimental: as §1
# [9] = biological target: SNX9, Q9Y5X1
# Experimental: as §1
# [10] = biological target: THOC3, Q96J01
# Experimental: as §1
# [11] = biological target: TRIP4, Q15650
# Experimental: as §1
# [12] = biological target: USP24, Q9UPU5
# Experimental: as §1
# [13] = biological target: XRN1, Q8IZH2
# Experimental: as §1
# [14] = biological target: ANAPC5, Q9UJX4
# Experimental: as §1
# [15] = biological target: CAV1, Q03135
# Experimental: as §1
Binder,PRISMA enrichment of interactor (log2) [1],PRISMA enrichment of interactor (log2) [2],PRISMA enrichment of interactor (log2) [3],PRISMA enrichment of interactor (log2) [4],PRISMA enrichment of interactor (log2) [5],PRISMA enrichment of interactor (log2) [6],PRISMA enrichment of interactor (log2) [7],PRISMA enrichment of interactor (log2) [8],PRISMA enrichment of interactor (log2) [9],PRISMA enrichment of interactor (log2) [10],PRISMA enrichment of interactor (log2) [11],PRISMA enrichment of interactor (log2) [12],PRISMA enrichment of interactor (log2) [13],PRISMA enrichment of interactor (log2) [14],PRISMA enrichment of interactor (log2) [15]
B1,3.84,4.21,5.07,4.52,4.31,7.23,6.57,5.73,4.27,4.32,6.67,5.7,6.05,–,–
B2,–,–,–,–,–,–,–,–,–,–,–,–,–,5.5,4.38
